In PubChem BioAssay AID2326 (National Center for Advancing Translational Sciences (NCATS), 2010):
The campaign covered roughly 270,000 compounds. About 1,100 (0.41%) were called active. Only results without a clear call are listed here; the source files them as inconclusive. Calls follow the shape of the full dose curve.

assay: qHTS Assay for Inhibitors of Influenza NS1 Protein Function; details: cell-based NS1 function reporter; also: actives are rising curves; nearly all actives have a fitted effect of over 50% in size
Potency is read from the fitted curve at half-maximal effect.

| SMILES | Potency |
| --- | --- |
| CCOP(C)(=S)SCC(=O)NC(C)C(=O)O (configuration not stated) | inconclusive: 10 µM |
| CP(=S)(Nn1cnnc1)Oc1ccccc1 (configuration not stated) | inconclusive: 8.91 µM |
